# Publication PMC12040169 (PLOS Biology, 2025)
# The other results are listed elsewhere or left out.
# System: T1, CTL2-GFP (C. trachomatis L2/434/Bu, GFP-expressing)
# T1 construct: L2/434/Bu, GFP-expressing
# Set-up: species or system HeLa; Intracellular C. trachomatis growth in HeLa cells, bulk GFP fluorescence relative to DMSO
# Details: bulk GFP, single well; 28.5 h, 10 µM; inhibitor
row,SMILES,% of control remaining [%]
1,Cc1ccccc1CNCCNCC(C)O (stereo not drawn) [CBK268718C],104.856
2,Cc1ccc(S(=O)(=O)N2CCC(N3CCN(CCO)CC3)CC2)cc1 [CBK264656G],100
3,O=C(Nc1ccccc1F)c1cc(Cl)sc1Cl [CBK085969],141.874
4,CNc1c(C)cc([N+](C)(C)C)cc1C [CBK261007I],100
5,C=CCN1C(=O)C2(CC(=O)N(CCC3CCCCC3)C2=O)c2ccccc21 (stereo not drawn) [CBK075160],95.1207
6,FC(F)(F)c1ccc(OCCCc2ccncc2)nc1 [CBK115791],98.5455
7,COCCOc1cccc(OCCOc2nccnc2N2CCNC[C@H]2C)c1 [CBK048435],105.069
8,O=C(Nc1ccc(S(=O)(=O)Nc2ncccn2)cc1)c1ccc(N2C(=O)c3ccccc3C2=O)cc1 [CBK264868],102.784
9,CC(C)(C)C(=O)Nc1ccc(S(=O)(=O)NC2CCCCC2)cc1 [CBK268783],117.922
10,CC(C)C1C(=O)Nc2ccccc2N1C(=O)NCCC(=O)O (stereo not drawn) [CBK286659],129.005
11,CCn1cc(-c2cncn2CC(C)N2CCCCC2)cn1 (stereo not drawn) [CBK281556],103.083
12,O=C(O)CC(C(=O)O)c1ccc(Cl)cc1Cl (stereo not drawn) [CBK268523],136.79
13,CCCCOc1ccc(C(=O)N(C)c2cnn(C)c2)c(O)c1 [CBK306167],133.463
14,COc1cc(F)ccc1-c1ccc(NS(C)(=O)=O)c2ccccc12 [CBK083744],97.9864
15,C[C@@H]1C(=O)O[C@H]2[C@H]1CC[C@@]1(C)Cc3sc(NC(=O)CN(C)C)nc3[C@@H](C)[C@H]21 [CBK289431],128.289
16,O=C(O)CCSC(CC(=O)c1ccccc1)c1ccc(Cl)cc1 (stereo not drawn) [CBK077251],102.901
17,O=c1[nH]c(=S)c2c(n1CCc1ccccn1)CCCC2 [CBK023951G],127.764
18,NC(=O)CN1CCN(c2nccnc2Oc2ccc(F)cc2)CC1 [CBK083018T],97.8623
19,O=C(NCc1cccnc1)c1ccc(-c2cccc(Cl)c2Cl)o1 [CBK112211],82.8408
20,O=C(Nc1cccnc1)N1CCCCC1CO (stereo not drawn) [CBK155990],75.5409
21,Clc1cccc(-n2cnnn2)c1Cl [CBK027665],160.245

# Nothing new here: an excerpt of the list.
row,SMILES,% of control remaining [%]
14,COc1cc(F)ccc1-c1ccc(NS(C)(=O)=O)c2ccccc12 [CBK083744],97.9864
15,C[C@@H]1C(=O)O[C@H]2[C@H]1CC[C@@]1(C)Cc3sc(NC(=O)CN(C)C)nc3[C@@H](C)[C@H]21 [CBK289431],128.289
16,O=C(O)CCSC(CC(=O)c1ccccc1)c1ccc(Cl)cc1 (stereo not drawn) [CBK077251],102.901
17,O=c1[nH]c(=S)c2c(n1CCc1ccccn1)CCCC2 [CBK023951G],127.764
18,NC(=O)CN1CCN(c2nccnc2Oc2ccc(F)cc2)CC1 [CBK083018T],97.8623
19,O=C(NCc1cccnc1)c1ccc(-c2cccc(Cl)c2Cl)o1 [CBK112211],82.8408
20,O=C(Nc1cccnc1)N1CCCCC1CO (stereo not drawn) [CBK155990],75.5409

# Following part.

row,SMILES,% of control remaining [%]
1,O=C(Nc1nc(-c2ccccc2)ns1)c1ccncc1 [CBK113234],100
2,COC(=O)c1ccc(NC(=O)C2Cc3ccccc3CN2S(=O)(=O)c2cccs2)cc1 (stereo not drawn) [CBK265693],100
3,Cc1nc(-c2ccc(NC(=O)CC(C)n3cccn3)cc2)cs1 (stereo not drawn) [CBK281403],114.755
4,Cc1cc2c(s1)c1cnn(CC(=O)N3CCCCC3)c(=O)c1n2C [CBK284187],115.005
5,CCC(=O)c1c(-c2ccccc2)nc2n(C)c3ccccc3n12 [CBK262488],81.6528
6,Cc1nc(N(C)C)ncc1C(=O)NCCSc1nnnn1C [CBK306673],120.393
7,CN(C)CCOC(=O)C1CCCCCN1C (stereo not drawn) [CBK278175G],100
8,CN(C)c1ccc([N+](=O)[O-])cc1/C=N/NC(=O)CCc1ccccc1O [CBK263257],125.915
9,CC(C)N(C(=O)N1CCC(c2cccnc2)CC1)C(C)C [CBK283850],112.609
10,CC(=O)N1CCN(c2ccccc2NC(=O)c2ccc(OCc3ccccc3)cc2)CC1 [CBK269775],95.743
11,COc1cccc(NC(=O)CN2CCN(c3nc4ccc([N+](=O)[O-])cc4s3)CC2)c1 [CBK264089],108.352
12,N#Cc1cccc(S(=O)(=O)Nc2cccc(C(=O)O)c2)c1 [CBK155699],99.7981
13,Cc1cc(C)nc(NC(=N)NC2Cc3ccccc3C2)n1 [CBK287863],45.9334
14,Cc1ccc(C(C)(C)C(=O)N2CC(C(=O)N3CCN(C)CC3)C2)cc1 [CBK281371],114.869
15,O=C(CSCc1ccc([N+](=O)[O-])cc1)Nc1ccc(O)cc1C(=O)O [CBK131710],146.912
16,O=C1N/C(=C/c2cccs2)C(=O)N1Cc1ccccc1F [CBK265601],127.427
17,CCN(CC)c1nc2n(c(=O)n1)CCN2CC [CBK027342],156.341
18,O=C(CSc1ccccc1)Nc1nccs1 [CBK288213],92.8877
19,CC(=O)N1CC(C)(C)c2ccccc21 [CBK003715],124.797
20,CCOC(=O)Nc1ccc2ccccc2n1 [CBK028207],166.32
21,Cc1ccc(OCCCC(=O)N2CCCc3c(cnn3C)C2)c(C)c1 [CBK285288],79.2233
